From US20080045592A1, “Method of inhibiting growth and proliferation of listeria monocytogenes using levulinate” (Utah State University, priority 2006, published 2008)

Test: Consumer sensory panel, overall liking of turkey breast roll and bologna
Settings: 2% additive, scale of 1 to 9 (9=strongly like)

SMILES: CC(O)C(=O)[O-].[Na+] (centres unmarked) [Sodium Lactate, sodium lactate, reference compound]
- Mean score for overall liking (bologna, 112 consumers): 6.2
- Mean score for overall liking (turkey breast roll, 132 consumers): 6.9
